Measured values reported in PMC8128024.
Results are given in words; binding and its absence hold for the method and conditions named. In cells and extracts the contact can be indirect. Some entries that bind do so weakly or less than the wild type.

Chains of the proteins cited; added tags and fusions are not shown.
UniProt Q9Z1E3: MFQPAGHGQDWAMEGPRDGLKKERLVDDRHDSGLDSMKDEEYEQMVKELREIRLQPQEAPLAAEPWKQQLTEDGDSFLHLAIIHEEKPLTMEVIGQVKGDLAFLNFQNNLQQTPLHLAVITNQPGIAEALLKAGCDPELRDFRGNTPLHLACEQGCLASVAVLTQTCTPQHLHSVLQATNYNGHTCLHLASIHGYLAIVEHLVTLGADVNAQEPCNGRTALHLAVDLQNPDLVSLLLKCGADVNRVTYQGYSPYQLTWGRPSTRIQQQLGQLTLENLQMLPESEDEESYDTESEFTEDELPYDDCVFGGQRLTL
UniProt Q91YI4: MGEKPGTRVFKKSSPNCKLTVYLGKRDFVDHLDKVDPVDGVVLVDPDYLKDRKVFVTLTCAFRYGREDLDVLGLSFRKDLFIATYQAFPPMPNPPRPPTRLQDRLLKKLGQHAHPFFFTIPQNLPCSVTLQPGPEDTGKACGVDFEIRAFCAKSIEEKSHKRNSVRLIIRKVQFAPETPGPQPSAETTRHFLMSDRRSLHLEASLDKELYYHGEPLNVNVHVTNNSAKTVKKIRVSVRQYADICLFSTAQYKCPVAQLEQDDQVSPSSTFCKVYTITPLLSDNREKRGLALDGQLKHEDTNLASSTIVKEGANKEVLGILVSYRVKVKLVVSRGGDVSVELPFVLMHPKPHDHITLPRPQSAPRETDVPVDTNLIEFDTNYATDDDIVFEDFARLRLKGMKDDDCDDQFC

Columns and labels:
[1] = biological target: T1, G-protein-coupled receptor 43 (mouse (endogenous in RAW264.7)) (UniProt Q8VCK6); test: co-IP; Pierce Classic IP Kit, RAW264.7 cell lysates, endogenous proteins; cells treated with sodium butyrate (4 μmol/mL) or normal saline for 30 min (GPR43 and β-arrestin-2), or with sodium butyrate followed by LPS (1 μg/mL) half an hour later, lysates after 6 h (β-arrestin-2 and IкBα); normal IgG as negative control; Western blot; which antibody precipitated is not stated
T1 sequence: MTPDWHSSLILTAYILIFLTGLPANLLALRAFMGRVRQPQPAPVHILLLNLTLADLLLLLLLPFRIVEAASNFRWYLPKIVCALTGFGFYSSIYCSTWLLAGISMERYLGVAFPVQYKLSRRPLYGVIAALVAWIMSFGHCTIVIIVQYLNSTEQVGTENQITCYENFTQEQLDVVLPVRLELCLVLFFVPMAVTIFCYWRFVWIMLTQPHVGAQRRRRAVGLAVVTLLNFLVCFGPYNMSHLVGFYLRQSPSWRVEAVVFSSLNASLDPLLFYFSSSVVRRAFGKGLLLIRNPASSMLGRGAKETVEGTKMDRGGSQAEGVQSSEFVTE

[2] = biological target: IкBα (mouse (endogenous in RAW264.7)) (UniProt Q9Z1E3); test: as above

β-arrestin-2 (from UniProt Q91YI4 1-410)
binding [1]: binds
binding [2]: binds
